In paper PMC6945596:
Results are given in words; binding and its absence hold for the method and conditions named. Binding seen in cells or lysates may run through a third protein. Some results given as binding are weak or reduced against the parent protein; the word gives no strength.

Sequences of proteins named here, by UniProt entry; tags and fusion partners are left off.
UniProt Q80SW1: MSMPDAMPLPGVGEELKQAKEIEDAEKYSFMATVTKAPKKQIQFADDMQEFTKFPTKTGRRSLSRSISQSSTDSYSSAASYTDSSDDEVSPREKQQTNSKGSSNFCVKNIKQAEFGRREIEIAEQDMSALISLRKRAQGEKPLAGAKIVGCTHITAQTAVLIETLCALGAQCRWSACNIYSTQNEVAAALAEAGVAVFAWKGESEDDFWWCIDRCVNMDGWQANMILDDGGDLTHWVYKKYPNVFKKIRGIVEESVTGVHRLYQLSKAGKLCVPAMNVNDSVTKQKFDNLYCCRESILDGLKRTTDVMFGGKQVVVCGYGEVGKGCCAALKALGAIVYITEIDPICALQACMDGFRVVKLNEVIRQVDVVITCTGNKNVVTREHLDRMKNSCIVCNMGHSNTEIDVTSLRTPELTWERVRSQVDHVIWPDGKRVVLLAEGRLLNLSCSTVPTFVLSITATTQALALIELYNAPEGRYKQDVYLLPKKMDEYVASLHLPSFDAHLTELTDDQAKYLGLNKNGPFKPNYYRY

Target: T1, sodium-dependent chloride/bicarbonate exchanger Ncbe (mouse (endogenous in choroid plexus)) (UniProt Q5DTL9)
T1 sequence: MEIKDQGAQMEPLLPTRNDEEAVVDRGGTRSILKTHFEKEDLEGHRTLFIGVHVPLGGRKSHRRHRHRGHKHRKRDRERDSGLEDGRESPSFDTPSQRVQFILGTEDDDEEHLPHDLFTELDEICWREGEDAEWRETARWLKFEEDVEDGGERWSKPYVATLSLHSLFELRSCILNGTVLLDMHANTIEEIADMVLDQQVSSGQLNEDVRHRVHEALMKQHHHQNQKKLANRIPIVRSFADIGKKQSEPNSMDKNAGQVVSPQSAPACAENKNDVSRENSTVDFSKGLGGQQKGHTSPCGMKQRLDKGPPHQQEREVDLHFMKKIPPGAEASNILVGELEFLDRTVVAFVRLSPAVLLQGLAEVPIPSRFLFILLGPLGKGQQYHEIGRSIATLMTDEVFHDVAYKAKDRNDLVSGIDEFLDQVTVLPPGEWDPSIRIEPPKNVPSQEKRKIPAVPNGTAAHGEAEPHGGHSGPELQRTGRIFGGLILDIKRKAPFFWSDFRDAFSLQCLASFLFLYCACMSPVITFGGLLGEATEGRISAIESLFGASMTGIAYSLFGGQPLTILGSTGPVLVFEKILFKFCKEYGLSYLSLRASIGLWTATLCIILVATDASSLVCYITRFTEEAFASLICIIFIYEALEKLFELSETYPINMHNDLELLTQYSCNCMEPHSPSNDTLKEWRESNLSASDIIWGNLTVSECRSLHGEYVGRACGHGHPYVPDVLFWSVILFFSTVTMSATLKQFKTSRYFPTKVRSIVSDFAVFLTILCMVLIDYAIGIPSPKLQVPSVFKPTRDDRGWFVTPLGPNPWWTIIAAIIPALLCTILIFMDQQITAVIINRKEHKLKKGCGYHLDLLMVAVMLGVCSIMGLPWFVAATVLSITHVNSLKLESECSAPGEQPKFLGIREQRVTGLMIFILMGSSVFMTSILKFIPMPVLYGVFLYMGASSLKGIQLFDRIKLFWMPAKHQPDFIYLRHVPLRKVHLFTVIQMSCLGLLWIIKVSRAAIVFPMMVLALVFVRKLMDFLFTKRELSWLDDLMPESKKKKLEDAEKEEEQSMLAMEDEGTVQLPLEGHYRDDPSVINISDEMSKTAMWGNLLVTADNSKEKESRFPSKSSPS
Experiment: proximity ligation; Duolink PLA with anti-Ncbe and anti-IRBIT antibodies on paraffin sections of perfusion-fixed mouse brain (choroid plexus); Ncbe ko tissue run in parallel as negative control

IP3R Binding protein released with Inositol 1,4,5-Trisphosphate (IRBIT) (from UniProt Q80SW1 1-530)
binding: binds
